This is an account of results in paper PMC212687.

The exact form of at least one protein or probe is not confirmed. Weaker means in comparison with the reference protein, sequence or condition of that experiment. At least one verdict was read from the data and is not stated in words by the source.

The test system of the data set is RAG1 + RAG2 + HMG (HMG-1/2). As to the kind of experiment: EMSA. The following applies: Standard gel shift, three experiments, recombinant protein, label: 5' end label, top strand. In general terms: A gel shift assay detects complexes by their altered migration in electrophoresis.

Regarding “GATCTGGCCTGGTCTGCACAGTGCAGATCTAGGAGAGAGAAACCTGCACTCGAGCGGAG (double strand) [H-Sac (anticonsensus spacer)]”, the binding result (Sac level very similar to RSS with Jβ2.6 spacer (H)) is “binds more weakly”.

Take “GATCTGGCCTGGTCTGCACAACCATACAGCCCTTAACAAAAACCTGCACTCGAGCGGAG (double strand) [Sc-N]”: the binding result (spacer boosts binding with N, Sc-N > H-N) is recorded as “binds”.

On to “GATCTGGCCTGGTCTGCACAACCATACAGCCCTTAAGAGAAACCTGCACTCGAGCGGAG (double strand) [Sc (Jβ2.6 with consensus spacer)]”, for which the binding result (no change vs Jβ2.6 (weak)) is on record as “binds more weakly”. Regarding “GATCTGGCCTGGTCTGCACAGTGATACAGCCCTTAACAAAAACCTGCACTCGAGCGGAG (double strand) [H-Sc-N (consensus 12-RSS)]”, the binding result (highest binding of all RSSs) is reported as “binds”. On to “GATCTGGCCTGGTCTGCACAGTGCTGTGACTCCCAAGAGAAACCTGCACTCGAGCGGAG (double strand) [H (Jβ2.6 with consensus heptamer)]”, for which, where the note is “consensus heptamer reduces binding vs Jβ2.6”, the binding result is listed as “binds more weakly”. As to “GATCTGGCCTGGTCTGCACAGTGCTGTGACTCCCAACAAAAACCTGCACTCGAGCGGAG (double strand) [H-N]”, the binding result (lower than Sc-N) is on record as “binds more weakly”.

Turning to “GATCTGGCCTGGTCTGCACAACCCAGATCTAGGAGACAAAAACCTGCACTCGAGCGGAG (double strand) [Sac-N]”, the binding result (lower than Sc-N, similar to N) was “binds more weakly”.
